Results published in patent US8613950B2, “Pharmaceutical forms with improved pharmacokinetic properties” (Bayer Intellectual Property GmbH, priority 2005, dated 2013).
For at least one compound, name, drawing or mass did not settle the structure.

Test: Solubility of the vardenafil form employed in 10 ml of physiological saline at 25° C.
Type: physicochemical
Excerpt: Accordingly, the present invention provides a vardenafil-comprising drug formulation, which is characterized in that the solubility of the form of vardenafil employed in a small amount of aqueous liquid is sufficiently high and the dissolution rate of the formulation disintegrating in the mouth is sufficiently rapid.

Row | Compound | amount of the active compound form that dissolves in 10 ml of physiological saline (10 ml physiological saline, amount offered = tablet dose corresponding to 10 mg of vardenafil, dihydrate) | share of the dose of the active compound employed that dissolves in 10 ml of physiological saline (dose corresponding to 10 mg of vardenafil, dihydrate) | dissolution in 10 ml of physiological saline (10 mg of vardenafil together with 30 mg of succinic acid)
1 | CCCc1nc(C)c2c(=O)[nH]c(-c3cc(S(=O)(=O)N4CCN(CC)CC4)ccc3OCC)nn12 [vardenafil dihydrate] | about 0.1 mg | about 1% | –
2 | CCCc1nc(C)c2c(=O)[nH]c(-c3cc(S(=O)(=O)N4CCN(CC)CC4)ccc3OCC)nn12 [vardenafil] | – | – | dissolve completely
